# This list was built around the results that the source calls inconclusive (neither active nor inactive); the mix of calls is not that of the screen. For some of these results: Where the call is inconclusive, the potency comes from a doubtful curve fit. Active and inactive are the calls of the source. Unless noted, the call rests on the fitted dose curve; in most records, active means well fitted curve in the direction sought with a large enough effect; inconclusive means small, poorly fitted or top-dose-only effect, or another doubt; inactive means no such curve, though single readings can be large; an effect the other way counts as inactive or inconclusive.
# Protein sequences, listed by entry. Tags and fused reporters are not part of them.
# UniProt P10635, whole entry, looked up: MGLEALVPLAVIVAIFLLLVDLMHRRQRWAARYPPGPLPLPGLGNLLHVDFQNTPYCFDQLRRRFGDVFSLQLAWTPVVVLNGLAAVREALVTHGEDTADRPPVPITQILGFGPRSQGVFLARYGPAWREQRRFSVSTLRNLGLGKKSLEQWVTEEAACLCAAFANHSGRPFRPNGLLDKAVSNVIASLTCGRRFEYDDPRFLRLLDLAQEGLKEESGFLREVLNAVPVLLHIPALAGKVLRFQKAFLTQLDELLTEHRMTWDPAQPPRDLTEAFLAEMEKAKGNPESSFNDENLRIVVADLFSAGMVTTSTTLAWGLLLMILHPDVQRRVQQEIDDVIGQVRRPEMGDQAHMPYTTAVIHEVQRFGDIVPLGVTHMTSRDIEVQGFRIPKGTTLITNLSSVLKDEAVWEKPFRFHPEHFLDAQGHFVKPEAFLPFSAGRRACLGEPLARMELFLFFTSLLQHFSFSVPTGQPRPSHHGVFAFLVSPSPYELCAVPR
# Key:
# [1] = Quantitative High-Throughput drug screen in 47 multiple myeloma cell lines against the NCATS MIPE library collection: XG6_PLB cell viability assay (AID 1919865); details: XG6 myeloma viability, CellTiter-Glo ATP luminescence, 48 h; viability (% of control): at 45.8 µM (top of the series); further: nearly all actives have a fitted effect of over 40% in size; further: potency means the concentration at half of the fitted maximal effect
# Procedure, shortened: (§1)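 Viability after 48 h drug exposure was measured as ATP-dependent luminescence. Cells, 500 per well, sat at 37 °C under 5% CO2; DMSO wells set 100%, media-only wells 0%.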
# [2] = Quantitative High-Throughput drug screen in 47 multiple myeloma cell lines against the NCATS MIPE library collection: VP6_DJ cell viability assay (AID 1919867); details: ATP luminescence, 48 h; series mostly up to 45.8 µM; further: nearly all actives have a fitted effect of over 40% in size; further: potency means the concentration at half of the fitted maximal effect
# Procedure, shortened: as §1
# [3] = Quantitative High-Throughput drug screen in 47 multiple myeloma cell lines against the NCATS MIPE library collection: UTMC2_PLB cell viability assay (AID 1919868); details: CellTiter-Glo ATP luminescence, 48 h; series mostly up to 45.8 µM; further: nearly all actives have a fitted effect of over 55% in size; further: potency means the concentration at half of the fitted maximal effect
# Procedure, shortened: as §1
# [4] = Quantitative High-Throughput drug screen in 47 multiple myeloma cell lines against the NCATS MIPE library collection: PE2_PLB cell viability assay (AID 1919869); details: PE2_PLB myeloma cells viability, ATP luminescence, 48 h; viability (% of control): at 45.8 µM (top of the series); further: nearly all actives have a fitted effect of over 35% in size; further: potency means the concentration at half of the fitted maximal effect
# Procedure, shortened: as §1
# [5] = Quantitative High-Throughput drug screen in 47 multiple myeloma cell lines against the NCATS MIPE library collection: OPM2_DSMZ cell viability assay (AID 1919872); further: nearly all actives have a fitted effect of over 30% in size; further: potency means the concentration at half of the fitted maximal effect
# Procedure, shortened: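 Inhibition of cell viability is measured here. Each line was plated at 500 cells per well, treated with MIPE 4.0 drugs, kept 48 hours at 37C, then assayed for ATP content by CellTiter-Glo luminescence.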
# [6] = Quantitative High-Throughput drug screen in 47 multiple myeloma cell lines against the NCATS MIPE library collection: KMS11_JCRBsus cell viability assay (AID 1919873); details: KMS11 myeloma viability, CellTiter-Glo ATP luminescence, 48 h; viability (% of control): at 45.8 µM (top of the series); further: nearly all actives have a fitted effect of over 50% in size; further: potency means the concentration at half of the fitted maximal effect
# Procedure, shortened: as §1
# [7] = Quantitative High-Throughput drug screen in 47 multiple myeloma cell lines against the NCATS MIPE library collection: KMS28BM_JCRB cell viability assay (AID 1919874); further: nearly all actives have a fitted effect of over 35% in size; further: potency means the concentration at half of the fitted maximal effect
# Procedure, shortened: as §1
# [8] = Quantitative High-Throughput drug screen in 47 multiple myeloma cell lines against the NCATS MIPE library collection: PCM6_Riken cell viability assay (AID 1919870); details: CellTiter-Glo ATP, 48 h; viability (% of control): at 45.8 µM (top of the series); further: nearly all actives have a fitted effect of over 30% in size; further: potency means the concentration at half of the fitted maximal effect
# Procedure, shortened: as §1
# [9] = qHTS for identification of novel therapeutic agents for treatment of microphthalmiaassociated transcription factor (MiT) renal cell carcinoma (RCC) (AID 1963991; calls by dose curve; further: potency means the concentration at half of the fitted maximal effect); details: TFE3-RCC UOK109 viability, CellTiter-Glo, 48 h; active = Z-AUC below -0.8 in all three lines
# Procedure, shortened: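 Three TFE3-fusion RCC lines (UOK109, UOK124, UOK145), 500 cells/well in complete medium, were treated with MIPE 4.0 compounds for 48 hours at 37 C. Viability was by CellTiter-Glo luminescence, normalized to DMSO (100%) and empty wells (0%); curves fitted over 11 concentrations.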
# [10] = Quantitative High-Throughput drug screen in 47 multiple myeloma cell lines against the NCATS MIPE library collection: RPMI8226_ATCC cell viability assay (AID 1919871); further: nearly all actives have a fitted effect of over 30% in size; further: potency means the concentration at half of the fitted maximal effect
# Procedure, shortened: as §1
# [11] = molecular target: Cytochrome P450 2D6 (Homo sapiens) (UniProt P10635); experiment: qHTS for inhibitors of CYP2D6 against the NCATS DSHEA and TCM libraries (AID 1919972); details: CYP2D6 enzymatic inhibition, luminescence qHTS; further: potency means the concentration at half of the fitted maximal effect
# Procedure, shortened: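 Steps: enzyme plus luciferin substrate dispensed; test substances pinned; 15 min RT; 1x NADPH regenerating solution added, 30–45 min RT protected from light; detection reagent, 30 min RT; luminescence measured. Minus-enzyme wells as background.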
# [12] = KB-8-5-11 P-gp reporter qHTS against the NCATS DSHEA and TCM libraries (AID 1919977)
# Procedure, shortened: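 P-gp-overexpressing KB-8-5-11 cells were screened in colchicine-free medium at 500 cells/well, as a titration series. Cells were exposed for 72 h at 37C. Viability was read by CellTiter-Glo luminescence after 30 min at room temperature.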
# [13] = Quantitative High-Throughput drug screen in 47 multiple myeloma cell lines against the NCATS MIPE library collection: XG1_PLB cell viability assay (AID 1919866); details: CellTiter-Glo ATP, 48 h; viability: at 45.8 µM (top of the series); further: potency means the concentration at half of the fitted maximal effect; nearly all actives have a fitted effect of over 35% in size
# Procedure, shortened: as §1
smiles,measurement,setting,value
CCNC(=O)CCCC=CC[C@@H]1[C@H](C=CC(O)CCc2ccccc2)[C@@H](O)C[C@@H]1O (some centres not stated),Potency,[1],inactive
same,Potency,[2],inactive
same,Potency,[3],inactive
same,Potency,[4],inactive
same,Potency,[5],"inconclusive: 11.8 µM [cytotoxic, partial curve, poor fit]"
same,Potency,[6],"inconclusive: 5.26 µM [cytotoxic, partial curve, poor fit]"
same,Potency,[7],active: 3.32 µM
CC1=C(C(=O)O)N2C(=O)[C@@H](NC(=O)[C@H](N)C3=CCC=CC3)[C@H]2SC1,Potency,[1],"inconclusive: 26.4 µM [cytotoxic, single point]"
same,Potency,[2],"inconclusive: 20.9 µM [cytotoxic, partial curve, poor fit]"
same,Potency,[3],"inconclusive: 0.0264 µM [rising, full curve, poor fit]"
same,Potency,[8],"inconclusive: 37.2 µM [cytotoxic, single point]"
same,Potency,[5],inactive
same,Potency,[6],inactive
same,Potency,[7],inactive
CCCCCN=C(N)NN=Cc1c[nH]c2ccc(OC)cc12,Potency,[1],"inconclusive: 1.18 µM [cytotoxic, full curve]"
same,Potency,[2],"inconclusive: 6.62 µM [cytotoxic, full curve]"
same,Potency,[3],"inconclusive: 13.2 µM [cytotoxic, partial curve, poor fit]"
same,Potency,[5],active: 10.5 µM
same,Potency,[7],"inconclusive: 3.32 µM [cytotoxic, full curve]"
same,Potency,[9],"inconclusive: 11.8 µM [falling, full curve]"
CC(C)C(=O)Nc1ccc([N+](=O)[O-])c(C(F)(F)F)c1,Potency,[1],active: 1.05 µM
same,Potency,[2],active: 3.32 µM
same,Potency,[3],"inconclusive: 13.2 µM [cytotoxic, partial curve, poor fit]"
same,Potency,[10],inactive
same,Potency,[6],"inconclusive: 37.2 µM [cytotoxic, single point]"
same,Potency,[9],"inconclusive: 2.35 µM [falling, full curve]"
CC1(C)CCC2=C(O1)c1ccccc1C(=O)C2=O,Potency,[1],"inconclusive: 33.2 µM [cytotoxic, single point]"
same,Potency,[2],"inconclusive: 37.2 µM [cytotoxic, single point]"
same,Potency,[3],active: 20.9 µM
same,Potency,[10],"inconclusive: 33.2 µM [cytotoxic, single point]"
same,Potency,[7],"inconclusive: 33.2 µM [cytotoxic, single point]"
same,Potency,[9],"inconclusive: 26.4 µM [falling, single point]"
Nc1nc(F)nc2c1ncn2[C@@H]1O[C@H](COP(=O)(O)O)[C@@H](O)[C@H]1O,Potency,[1],"inconclusive: 33.2 µM [cytotoxic, single point]"
same,Potency,[2],inactive
same,Potency,[3],"inconclusive: 0.0012 µM [rising, full curve, poor fit]"
same,Potency,[10],inactive
same,Potency,[6],inactive
same,Potency,[7],"inconclusive: 0.0012 µM [rising, full curve, poor fit]"
same,Potency,[9],"inconclusive: 11.8 µM [falling, partial curve]"
Cc1cc2c(s1)Nc1ccccc1N=C2N1CCN(C)CC1,Potency,[1],inactive
same,Potency,[2],"inconclusive: 20.9 µM [cytotoxic, single point]"
same,Potency,[3],inactive
same,Potency,[8],inactive
same,Potency,[7],inactive
CC1(C)CC(O)CC(C)(C)N1[O],Potency,[1],inactive
same,Potency,[2],"inconclusive: 0.0021 µM [rising, full curve, poor fit]"
same,Potency,[3],"inconclusive: 8.33 µM [rising, partial curve, poor fit]"
same,Potency,[8],inactive
same,Potency,[6],inactive
same,Potency,[7],"inconclusive: 0.0372 µM [rising, full curve, poor fit]"
same,Potency,[9],inconclusive: 0.0132 µM
O=c1c(O)c(-c2ccc(O)c(O)c2)oc2cc(O)cc(O)c12,Potency,[1],active: 16.6 µM
same,Potency,[2],active: 16.6 µM
same,Potency,[3],"inconclusive: 18.7 µM [cytotoxic, partial curve, poor fit]"
same,Potency,[8],active: 18.7 µM
same,Potency,[5],"inconclusive: 18.7 µM [cytotoxic, single point]"
same,Potency,[6],"inconclusive: 29.6 µM [cytotoxic, single point]"
same,Potency,[7],inactive
same,Potency,[11],"inconclusive: 14.1 µM [inhibitor, partial curve]"
same,Potency,[12],inactive
same,Potency,[9],"inconclusive: 18.7 µM [falling, partial curve]"
O=C1CCc2ccc(OCCCCN3CCN(c4cccc(Cl)c4Cl)CC3)cc2N1,Potency,[1],"inconclusive: 33.2 µM [cytotoxic, single point]"
same,Potency,[2],"inconclusive: 26.4 µM [cytotoxic, partial curve, poor fit]"
same,Potency,[3],"inconclusive: 11.8 µM [cytotoxic, partial curve, poor fit]"
same,Potency,[4],"inconclusive: 20.9 µM [cytotoxic, partial curve]"
same,Potency,[8],"inconclusive: 20.9 µM [cytotoxic, partial curve, poor fit]"
same,Potency,[10],"inconclusive: 33.2 µM [cytotoxic, single point]"
same,Potency,[6],"inconclusive: 20.9 µM [cytotoxic, partial curve]"
same,Potency,[9],"inconclusive: 23.5 µM [falling, partial curve, poor fit]"
CC(C)Cc1ccc(C(C)C(=O)O)cc1 (configuration not stated),Potency,[1],active: 6.45 µM
same,Potency,[2],"inconclusive: 3.23 µM [cytotoxic, partial curve, poor fit]"
same,Potency,[3],inactive
same,Potency,[7],"inconclusive: 0.0091 µM [rising, full curve, poor fit]"
COc1cc(OC)c(C(=O)CCCN2CCCC2)c(OC)c1,Potency,[1],inactive
same,Potency,[2],"inconclusive: 16.6 µM [cytotoxic, single point]"
same,Potency,[3],"inconclusive: 1.05 µM [cytotoxic, full curve, poor fit]"
same,Potency,[8],"inconclusive: 9.35 µM [cytotoxic, partial curve, poor fit]"
same,Potency,[10],"inconclusive: 5.26 µM [cytotoxic, partial curve, poor fit]"
same,Potency,[7],"inconclusive: 26.4 µM [cytotoxic, single point]"
N[C@H](CSC(c1ccccc1)(c1ccccc1)c1ccccc1)C(=O)O,Potency,[1],active: 6.62 µM
same,Potency,[13],"inconclusive: 13.2 µM [cytotoxic, partial curve]"
same,Potency,[4],"inconclusive: 5.26 µM [cytotoxic, full curve]"
same,Potency,[6],active: 4.18 µM
same,Potency,[7],"inconclusive: 14.8 µM [cytotoxic, partial curve]"
same,Potency,[9],"inconclusive: 20.9 µM [falling, partial curve]"
COc1ccc(-c2coc3cc(O)cc(O)c3c2=O)cc1,Potency,[1],"inconclusive: 37.2 µM [cytotoxic, single point]"
same,Potency,[2],inactive
same,Potency,[3],"inconclusive: 0.187 µM [rising, full curve, poor fit]"
same,Potency,[4],"inconclusive: 0.0019 µM [rising, full curve, poor fit]"
same,Potency,[9],"inconclusive: 18.7 µM [falling, partial curve]"
COc1cccc(-c2cc(=O)c3ccccc3o2)c1N,Potency,[1],"inconclusive: 18.7 µM [cytotoxic, partial curve, poor fit]"
same,Potency,[2],active: 1.32 µM
same,Potency,[3],"inconclusive: 9.35 µM [cytotoxic, partial curve, poor fit]"
same,Potency,[8],"inconclusive: 2.09 µM [cytotoxic, full curve]"
same,Potency,[6],inactive
same,Potency,[7],"inconclusive: 16.6 µM [rising, partial curve]"
same,Potency,[9],"inconclusive: 2.35 µM [falling, full curve]"
O=C1NC(=O)C(=Cc2ccc3nccnc3c2)S1,Potency,[1],"inconclusive: 5.75 µM [cytotoxic, partial curve]"
same,Potency,[2],active: 4.57 µM
same,Potency,[4],"inconclusive: 6.45 µM [cytotoxic, partial curve]"
same,Potency,[8],"inconclusive: 0.407 µM [cytotoxic, full curve, poor fit]"
same,Potency,[6],"inconclusive: 10.2 µM [cytotoxic, partial curve, poor fit]"
same,Potency,[9],"inconclusive: 1.82 µM [falling, full curve]"
O=C(c1ccccc1)c1ccc2n1CCC2C(=O)O (configuration not stated),Potency,[1],active: 9.35 µM
same,Potency,[2],active: 9.35 µM
same,Potency,[3],active: 14.8 µM
same,Potency,[10],inactive
same,Potency,[7],active: 23.5 µM
same,Potency,[9],"inconclusive: 18.7 µM [falling, partial curve]"
COc1ccc(C2Sc3ccccc3N(CCN(C)C)C(=O)C2OC(C)=O)cc1 (configuration not stated),Potency,[1],inactive
same,Potency,[2],inactive
same,Potency,[8],inactive
same,Potency,[7],inactive
same,Potency,[9],inconclusive: 9.35 µM
Cc1ccc(C(=O)Nc2ccc(S(=O)(=O)O)c3cc(S(=O)(=O)O)cc(S(=O)(=O)O)c23)cc1NC(=O)c1cccc(NC(=O)Nc2cccc(C(=O)Nc3cc(C(=O)Nc4ccc(S(=O)(=O)O)c5cc(S(=O)(=O)O)cc(S(=O)(=O)O)c45)ccc3C)c2)c1,Potency,[1],"inconclusive: 8.33 µM [cytotoxic, partial curve, poor fit]"
same,Potency,[13],"inconclusive: 18.7 µM [cytotoxic, partial curve]"
same,Potency,[10],"inconclusive: 7.43 µM [cytotoxic, partial curve, poor fit]"
same,Potency,[5],"inconclusive: 1.87 µM [cytotoxic, full curve]"
same,Potency,[6],"inconclusive: 0.209 µM [cytotoxic, full curve]"
Cc1csc(NC(=O)c2sc3nc4c(c(C(F)(F)F)c3c2N)CCC4)n1,Potency,[1],inactive
same,Potency,[2],"inconclusive: 2.09 µM [cytotoxic, full curve, poor fit]"
same,Potency,[3],inactive
same,Potency,[8],"inconclusive: 1.48 µM [cytotoxic, partial curve, poor fit]"
same,Potency,[10],active: 13.2 µM
same,Potency,[6],"inconclusive: 33.2 µM [cytotoxic, single point]"
same,Potency,[7],active: 26.4 µM
same,Potency,[9],inconclusive: 0.235 µM

# Given with tabs: part of the list above.
smiles	measurement	setting	value
CC1(C)CC(O)CC(C)(C)N1[O]	Potency	[6]	inactive
same	Potency	[7]	inconclusive: 0.0372 µM [rising, full curve, poor fit]
same	Potency	[9]	inconclusive: 0.0132 µM
O=c1c(O)c(-c2ccc(O)c(O)c2)oc2cc(O)cc(O)c12	Potency	[1]	active: 16.6 µM
same	Potency	[2]	active: 16.6 µM
same	Potency	[3]	inconclusive: 18.7 µM [cytotoxic, partial curve, poor fit]

# From PubChem BioAssay (NCATS)
